Common to all, as to assay: Cellular viability assay (resazurin, 7 days)
Type in all cases: cell-based
Background: Resazurin is reduced to fluorescent resorufin, in cell work by metabolically active cells.

One assay concerns GIST430 cells. Conditions: Homo sapiens, 168 h, GIST430 (KIT exon 11 del.560-576), n=2, read-out: Inhibition of viability IC50 ± SD. Here is the method:
(§1) Cells were seeded in culture medium supplemented with 15% FCS in 96-well plates with 0.1 × 10^4 cells (GIST48B and Kasumi-1), 0.3 × 10^4 cells (GIST430), or 0.25 × 10^4 cells (GIST430/654) per well. The following day, when cells were about 15% confluent, treatment with serial dilutions of test compounds or DMSO was performed in triplicate. After 7 days, cell viability was determined by adding 10 μL resazurin reagent (R&D Systems, #AR002) per well and fluorescence (544 nm excitation/590 nm emission) was measured after 4 to 5 hours. Fluorescent counts from wells containing medium only were subtracted as background from all cell samples. Cell viability levels from solvent-treated control cells were set as maximum signal (100%) and compound-treated samples were calculated as the percent of control. Fitting of dose–response curves and calculation of IC50 values were performed with nonlinear least squares regression analysis using GraphPad Prism software (RRID: SCR_002798; version 8).

In the next assay the test system is GIST430/654 cells. Conditions: GIST-430/654, 168 h, GIST430/654 (KIT exon 11/13 del.560-576 / V654A), n=2, read-out: Inhibition of viability IC50 ± SD. Here is the method:
as §1

The next assay has as its system GIST48B cells. Conditions: 168 h, GIST48B (KIT wildtype), n=2, read-out: Inhibition of viability IC50 ± SD. Here is the method: as §1
Another assay relates to Kasumi-1 cells. Particulars: Homo sapiens, 168 h, Kasumi-1 (KIT exon 17 N822K), n=2, read-out: Inhibition of viability IC50 ± SD. On the procedure:
as §1

We go through one compound from paper PMC12214875 (Molecular Cancer Therapeutics, 2025).

Usually IC50 stands for the point on the concentration scale where inhibition reaches its midpoint. Consider `Cc1ccc(NC(=O)c2ccc(CN3CCN(C)CC3)cc2)cc1Nc1nccc(-c2cccnc2)n1` [Imatinib], for which the IC50 is 18 ± 4 nM with GIST430 cells, 1030 ± 168 nM with GIST430/654 cells, more than 30 µM with GIST48B cells and 205 ± 5 nM in the assay with Kasumi-1 cells.
